Experimental data reported in paper PMC3591265.

T1: OsSET1 (E. coli two-hybrid fusion) (Oryza sativa) (UniProt Q10MI4)
T1 sequence: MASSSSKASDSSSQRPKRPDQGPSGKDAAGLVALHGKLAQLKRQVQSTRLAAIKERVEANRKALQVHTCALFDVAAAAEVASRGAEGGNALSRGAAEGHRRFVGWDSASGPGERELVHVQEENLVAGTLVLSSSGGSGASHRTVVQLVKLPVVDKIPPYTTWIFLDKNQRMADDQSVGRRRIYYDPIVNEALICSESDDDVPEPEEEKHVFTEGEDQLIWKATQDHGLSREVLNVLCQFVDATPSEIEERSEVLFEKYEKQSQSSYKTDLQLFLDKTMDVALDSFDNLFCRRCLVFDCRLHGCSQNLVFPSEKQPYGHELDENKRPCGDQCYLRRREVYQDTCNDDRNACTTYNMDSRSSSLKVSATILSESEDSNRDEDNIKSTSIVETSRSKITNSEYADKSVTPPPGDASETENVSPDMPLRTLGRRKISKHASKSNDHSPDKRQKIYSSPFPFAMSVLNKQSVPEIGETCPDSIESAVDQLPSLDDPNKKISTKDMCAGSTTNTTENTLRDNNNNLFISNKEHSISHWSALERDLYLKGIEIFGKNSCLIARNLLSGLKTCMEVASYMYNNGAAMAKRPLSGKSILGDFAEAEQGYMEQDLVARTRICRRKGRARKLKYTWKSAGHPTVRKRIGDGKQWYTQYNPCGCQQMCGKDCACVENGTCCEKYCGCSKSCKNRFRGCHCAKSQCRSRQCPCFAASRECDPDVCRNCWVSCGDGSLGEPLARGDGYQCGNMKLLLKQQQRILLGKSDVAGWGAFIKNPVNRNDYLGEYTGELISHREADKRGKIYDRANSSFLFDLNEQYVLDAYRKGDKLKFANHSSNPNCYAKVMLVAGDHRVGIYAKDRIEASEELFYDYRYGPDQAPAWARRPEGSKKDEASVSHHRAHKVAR

T2: OsCLF (E. coli two-hybrid fusion) (Oryza sativa) (UniProt Q5VN06)
T2 sequence: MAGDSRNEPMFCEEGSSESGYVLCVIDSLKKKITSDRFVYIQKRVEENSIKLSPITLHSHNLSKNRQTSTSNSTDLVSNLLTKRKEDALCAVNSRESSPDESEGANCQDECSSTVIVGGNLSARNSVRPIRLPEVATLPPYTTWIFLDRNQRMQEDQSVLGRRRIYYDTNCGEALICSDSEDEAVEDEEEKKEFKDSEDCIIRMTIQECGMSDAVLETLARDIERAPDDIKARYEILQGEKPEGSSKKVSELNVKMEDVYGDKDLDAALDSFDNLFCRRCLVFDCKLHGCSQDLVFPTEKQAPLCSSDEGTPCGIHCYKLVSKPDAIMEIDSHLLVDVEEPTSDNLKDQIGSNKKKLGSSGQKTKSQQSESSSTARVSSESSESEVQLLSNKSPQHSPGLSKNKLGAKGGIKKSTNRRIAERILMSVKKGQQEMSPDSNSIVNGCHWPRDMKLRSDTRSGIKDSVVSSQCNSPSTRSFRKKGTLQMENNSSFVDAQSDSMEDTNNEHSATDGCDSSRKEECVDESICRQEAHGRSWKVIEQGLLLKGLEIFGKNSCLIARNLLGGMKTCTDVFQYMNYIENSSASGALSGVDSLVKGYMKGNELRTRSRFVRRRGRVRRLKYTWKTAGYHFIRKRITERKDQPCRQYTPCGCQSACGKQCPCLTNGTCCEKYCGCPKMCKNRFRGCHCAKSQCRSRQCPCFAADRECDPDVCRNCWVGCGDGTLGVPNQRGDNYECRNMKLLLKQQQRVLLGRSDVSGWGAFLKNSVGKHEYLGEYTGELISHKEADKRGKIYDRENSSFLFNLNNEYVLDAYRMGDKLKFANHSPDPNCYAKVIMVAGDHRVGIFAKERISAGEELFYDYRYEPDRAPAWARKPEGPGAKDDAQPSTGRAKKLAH


Assays:
Assay in all cases: two-hybrid; E. coli two-hybrid (BacterioMatch II, Agilent); bait pBT and target pTRG co-transformed; selective medium with 3-AT, dual selective medium with 3-AT and streptomycin
[1] = molecular target: T1, OsSET1 (E. coli two-hybrid fusion) (Oryza sativa)
[2] = molecular target: T2, OsCLF (E. coli two-hybrid fusion) (Oryza sativa)
[3] = molecular target: OsEMF2b (E. coli two-hybrid fusion) (Oryza sativa)

Row | Molecule | binding [1] | binding [2] | binding [3]
1 | OsEMF2b (E. coli two-hybrid fusion) (Oryza sativa) | no binding | no binding | –
2 | OsFIE2 (E. coli two-hybrid fusion) (protein, UniProt Q6ZJX0 1-376) MAKLGPGQGLGCEAAVGLLAPSRKREYKACNKLTEGKRPLYAIGFNFLDFHYYEVFATVGGNRVTTYSCLKDGNFAILQAYIDEDKDESFYTLSWACDLDGTPLLVAAGSNGIIRVINCATEKLLKTFVGHGDSINEIRTQALKPSLIISASKDESVRLWNVHTGICILIFAGAGGHRNEVLSVDFHPSDIYRIASCGMDNTVKIWSMKEFWPYVEQSFTWTDLPSKFPTKYVQFPVLVAVVHSNYVDCTRWLGDFILSKSVDNEIVLWEPKTKEQSPGEGSIDILQKYPVPECDIWFIKFSCDFHFNQLAIGNREGKVFVWEVQSSPPVLTARLTNPQCKSAIRQTAVSFDGSTILACSEDGSIWRWDEVDHPKA | – | – | no binding

These are yes or no findings as the source states them, for the method shown. Where a sequence is shown, tags or fusion partners need not be part of it.
